PubChem BioAssay AID330 (DTP/NCI, 2004)
The list does not hold the whole screen: it is rich in T/C values a quarter to a half above the control, in often repeated tests (any T/C) and in doses without a T/C. Further doses and runs are listed elsewhere. T/C is the treated group as % of the vehicle group. Some doses have a count of surviving animals in place of a T/C: the source files T/C as zero there, which appears to mark a toxic dose or a test without result, not a measured value. Some doses without a T/C left all or most animals alive at the check, yet need not have been tolerated: survival well below the control is almost never listed, so the zero probably covers shortened survival too. Counts of survivors are from the toxicity check (mostly the fifth day) where no day follows; animals may have died later. Schedule codes are those of the source, read here as Q, the interval in days (D) or hours (H), X, the number of doses. Some entries hold several experiments; the results are listed from low to high. Some molecules as drawn cover several salts, stereoisomers or complexes of the source; a dose is that of the sample tested. Where survival is the endpoint, this PubChem deposit counts one and a half times the control or more as active, and values a quarter to a half above the control carry no call in these data; other NCI protocols may use other cut-offs.

System: P388 leukemia ip, CD2F1 mice, survival T/C
Test: NCI In Vivo Anticancer Drug Screen. Data for tumor model P388 Leukemia (intraperitoneal) in CD2F1 (CDF1) mice
Details: T/C endpoint: median survival time, higher T/C = longer survival
[1] = dose: 50.0 mg/kg/injection, schedule: Q01DX005 (ip), vehicle: Klucel (hydroxypropylcellulose) (HPC)
[2] = dose: 100.0 mg/kg/injection, schedule: Q01DX005 (ip), vehicle: Klucel (hydroxypropylcellulose) (HPC)
[3] = dose: 240.0 mg/kg/injection, schedule: Q01DX005 (ip), vehicle: saline
[4] = dose: 25.0 mg/kg/injection, schedule: Q01DX009 (ip), vehicle: saline with Tween-80
[5] = dose: 50.0 mg/kg/injection, schedule: Q01DX009 (ip), vehicle: saline with Tween-80
[6] = dose: 100.0 mg/kg/injection, schedule: Q01DX009 (ip), vehicle: saline with Tween-80
[7] = dose: 240.0 mg/kg/injection, schedule: Q01DX005 (ip), vehicle: saline with Tween-80

How did the survivor count (dose: 1.0 mg/kg/injection, schedule: Q01DX009 (ip), vehicle: water) turn out when Nc1ncnc2c1ccn2C1OC(CO)C(O)C1O (stereo not drawn) was run?
The survivor count was 5 of 6.

And the T/C (dose: 1.75 mg/kg/injection, schedule: Q01DX001 (ip), vehicle: saline)?
Its T/C is 125 % of control.

And the survivor count (dose: 2.0 mg/kg/injection, schedule: Q01DX009 (ip), vehicle: water)?
Its survivor count is 4 of 6.

And the T/C (dose: 3.5 mg/kg/injection, schedule: Q01DX001 (ip), vehicle: saline)?
Its T/C is 135 % of control.

And the survivor count (dose: 4.0 mg/kg/injection, schedule: Q01DX009 (ip), vehicle: water)?
Its survivor count is 1 of 6.

What about the survivor count (dose: 25.0 mg/kg/injection, schedule: Q01DX005 (ip), vehicle: Klucel (hydroxypropylcellulose) (HPC)) of the same compound?
The survivor count was 0 of 6.

And the survivor count (dose: 32.0 mg/kg/injection, schedule: Q01DX010 (sc), vehicle: saline)?
Its survivor count is 6 of 6.

What about the survivor count [1] of the same compound?
The survivor count was 0 of 6.

What about the survivor count (dose: 64.0 mg/kg/injection, schedule: Q01DX010 (sc), vehicle: saline) of the same compound?
The survivor count was 6 of 6.

What about the survivor count [2] of the same compound?
Its survivor count is 0 of 6.

For NC(=O)CNCC1Cc2ccccc21 (stereo not drawn), which survivor count [3] is on record?
The survivor count was 2 of 6.

Which survivor count (dose: 200.0 mg/kg/injection, schedule: Q04DX003 (ip), vehicle: saline) does the source give for CCCCCCCNC1CCCc2cc(OC)ccc21 (stereo not drawn) here?
The survivor count was 0 of 6.

Which results are given for COc1ccc(CC2C(=O)NC(C)C(=O)N(C)C3C(=O)N(C)C(Cc4ccc(OC(C)=O)c(c4)Oc4ccc(cc4)C3OC(C)=O)C(=O)NC(C)C(=O)NC(C)C(=O)N2C)cc1 (stereo not drawn)?
T/C (dose: 0.25 mg/kg/injection, schedule: Q01DX009 (ip), vehicle: none): 136 % of control; T/C (dose: 0.5 mg/kg/injection, schedule: Q01DX009 (ip), vehicle: none): 148 % of control; T/C (dose: 1.0 mg/kg/injection, schedule: Q01DX009 (ip), vehicle: none): 148 % of control

How did the survivor count (dose: 200.0 mg/kg/injection, schedule: Q01DX001 (ip), vehicle: Klucel (hydroxypropylcellulose) (HPC)) turn out when CN1CCC(O)(c2nccc3ccccc23)CC1 was run?
The survivor count was 0 of 6.

Which survivor count (dose: 50.0 mg/kg/injection, schedule: Q04DX003 (ip), vehicle: other) does the source give for Cc1c2ccccc2c(C)c2c1cc[n+]1ccccc21 here?
Its survivor count is 1 of 3.

And the survivor count (dose: 100.0 mg/kg/injection, schedule: Q04DX003 (ip), vehicle: other)?
The survivor count was 0 of 3.

CC1(Cl)C(c2ccccc2)=[N+]([O-])[N+]([O-])=C1c1ccccc1 was tested. Which survivor count (dose: 400.0 mg/kg/injection, schedule: Q04DX002 (ip), vehicle: saline with Tween-80) did it give?
The survivor count was 2 of 6.

What does the source list for C1O[C@@H]1[C@H]1CO1?
T/C (dose: 16.5 mg/kg/injection, schedule: Q01DX009 (ip), vehicle: saline): 142 % of control; T/C (dose: 25.0 mg/kg/injection, schedule: Q01DX009 (ip), vehicle: saline): 145 % of control; survivor count (dose: 37.5 mg/kg/injection, schedule: Q01DX009 (ip), vehicle: saline): 3 of 6

How did the survivor count (dose: 240.0 mg/kg/injection, schedule: Q01DX005 (ip), vehicle: Klucel (hydroxypropylcellulose) (HPC)) turn out when COc1ccc(-n2cnc3c(cnn3CN3CCCCC3)c2=O)cc1 was run?
Its survivor count is 0 of 6.

For COC(=O)c1nc2c(n(C)/c1=N/C(=O)Nc1ccccc1)CCCC2, which T/C [4] is on record?
The T/C was 130 % of control.

And the survivor count [5]?
The survivor count was 6 of 6.

What about the survivor count [6] of the same compound?
The survivor count was 4 of 6.

And the survivor count (dose: 200.0 mg/kg/injection, schedule: Q01DX009 (ip), vehicle: saline with Tween-80)?
Its survivor count is 0 of 6.

CCCCNC(=S)N/N=C1/CC(=O)N(c2ccccc2)C1c1ccccc1 (stereo not drawn) was tested. Which survivor count [7] did it give?
Its survivor count is 5 of 6.

Which survivor count (dose: 120.0 mg/kg/injection, schedule: Q01DX005 (ip), vehicle: saline) does the source give for COC1C(=O)OC(=O)C1OC (stereo not drawn) here?
Its survivor count is 6 of 6.

And the survivor count [3]?
Its survivor count is 6 of 6.

Which results are given for O=c1c2ccccc2oc2cc3c(c(O)c12)CCCC3?
survivor count (dose: 50.0 mg/kg/injection, schedule: Q01DX005 (ip), vehicle: saline with Tween-80): 6 of 6; survivor count (dose: 100.0 mg/kg/injection, schedule: Q01DX005 (ip), vehicle: saline with Tween-80): 6 of 6; survivor count (dose: 200.0 mg/kg/injection, schedule: Q01DX005 (ip), vehicle: saline with Tween-80): 6 of 6

For O=C(O)CCC(=O)N(CCP(c1ccccc1)c1ccccc1)CCP(c1ccccc1)c1ccccc1, which survivor count (dose: 200.0 mg/kg/injection, schedule: Q01DX009 (ip), vehicle: Klucel (hydroxypropylcellulose) (HPC)) is on record?
The survivor count was 1 of 6.

With Fc1ccccc1CSc1ncnc2nc[nH]c12 as the compound, how does the survivor count (dose: 300.0 mg/kg/injection, schedule: Q04DX003 (ip), vehicle: saline with Tween-80) read?
Its survivor count is 2 of 6.

What about the survivor count (dose: 400.0 mg/kg/injection, schedule: Q04DX003 (ip), vehicle: saline with Tween-80) of the same compound?
The survivor count was 1 of 6.

Which survivor count [1] does the source give for CC(C)CC1[NH][Sn]2([NH]C(CC(C)C)C(=O)[O]2)[O]C1=O (stereo not drawn) here?
The survivor count was 3 of 6.

And the survivor count [2]?
Its survivor count is 2 of 6.

And the survivor count (dose: 200.0 mg/kg/injection, schedule: Q01DX005 (ip), vehicle: Klucel (hydroxypropylcellulose) (HPC))?
The survivor count was 0 of 6.

Which survivor count (dose: 100.0 mg/kg/injection, schedule: Q01DX009 (ip), vehicle: water) does the source give for CC(=O)ON(C(C)=O)c1ccc(C(=O)OC2(C)CC(C)(C)[N+]([O-])=N2)cc1 (stereo not drawn) (tested in a mixture with another compound) here?
The survivor count was 6 of 6.

Which survivor count (dose: 400.0 mg/kg/injection, schedule: Q01DX001 (ip), vehicle: saline with Tween-80) does the source give for Cn1c(=O)[nH]c(Sc2ccccc2)c(C=O)c1=O here?
Its survivor count is 1 of 6.

How did the T/C (dose: 120.0 mg/kg/injection, schedule: Q01DX005 (ip), vehicle: saline with Tween-80) turn out when COc1cc(C(CC(C)=O)c2cc3c(cc2OC(C)=O)OCO3)cc(OC)c1OC (stereo not drawn) was run?
Its T/C is 135 % of control.

What about the survivor count [7] of the same compound?
The survivor count was 1 of 6 and 6 of 6.

Which T/C (dose: 5.56 mg/kg/injection, schedule: Q01DX009 (ip), vehicle: water) does the source give for O=C1c2ccccc2C(=O)N1CC[P+](c1ccccc1)(c1ccccc1)c1ccccc1 here?
Its T/C is 136 % of control.

And the T/C (dose: 6.25 mg/kg/injection, schedule: Q01DX009 (ip), vehicle: water)?
The T/C was 128, 130, 133 % of control.

What about the T/C (dose: 8.33 mg/kg/injection, schedule: Q01DX009 (ip), vehicle: water) of the same compound?
The T/C was 140 % of control.

And the T/C (dose: 12.0 mg/kg/injection, schedule: Q01DX009 (ip), vehicle: saline with Tween-80)?
Its T/C is 136 % of control.

What about the T/C (dose: 12.5 mg/kg/injection, schedule: Q01DX009 (ip), vehicle: saline with Tween-80) of the same compound?
Its T/C is 142 % of control.

And the T/C (dose: 12.5 mg/kg/injection, schedule: Q01DX009 (ip), vehicle: water)?
The T/C was 132 and 140 % of control.

What about the survivor count [4] of the same compound?
Its survivor count is 6 of 6.

What about the survivor count (dose: 25.0 mg/kg/injection, schedule: Q01DX009 (ip), vehicle: water) of the same compound?
Its survivor count is 0 of 6 and 3 of 6.

What about the survivor count [5] of the same compound?
The survivor count was 1 of 6.

And the survivor count [6]?
The survivor count was 0 of 6.
